Data taken from publication PMC9064079.
Results are given in words; binding and its absence hold for the method and conditions named. Binding seen in cells or lysates may run through a third protein. These calls come from enrichment with a bait or labelling near it, and not all partners need be listed.

Chains of the proteins cited; added tags and fusions are not shown.
UniProt P35579: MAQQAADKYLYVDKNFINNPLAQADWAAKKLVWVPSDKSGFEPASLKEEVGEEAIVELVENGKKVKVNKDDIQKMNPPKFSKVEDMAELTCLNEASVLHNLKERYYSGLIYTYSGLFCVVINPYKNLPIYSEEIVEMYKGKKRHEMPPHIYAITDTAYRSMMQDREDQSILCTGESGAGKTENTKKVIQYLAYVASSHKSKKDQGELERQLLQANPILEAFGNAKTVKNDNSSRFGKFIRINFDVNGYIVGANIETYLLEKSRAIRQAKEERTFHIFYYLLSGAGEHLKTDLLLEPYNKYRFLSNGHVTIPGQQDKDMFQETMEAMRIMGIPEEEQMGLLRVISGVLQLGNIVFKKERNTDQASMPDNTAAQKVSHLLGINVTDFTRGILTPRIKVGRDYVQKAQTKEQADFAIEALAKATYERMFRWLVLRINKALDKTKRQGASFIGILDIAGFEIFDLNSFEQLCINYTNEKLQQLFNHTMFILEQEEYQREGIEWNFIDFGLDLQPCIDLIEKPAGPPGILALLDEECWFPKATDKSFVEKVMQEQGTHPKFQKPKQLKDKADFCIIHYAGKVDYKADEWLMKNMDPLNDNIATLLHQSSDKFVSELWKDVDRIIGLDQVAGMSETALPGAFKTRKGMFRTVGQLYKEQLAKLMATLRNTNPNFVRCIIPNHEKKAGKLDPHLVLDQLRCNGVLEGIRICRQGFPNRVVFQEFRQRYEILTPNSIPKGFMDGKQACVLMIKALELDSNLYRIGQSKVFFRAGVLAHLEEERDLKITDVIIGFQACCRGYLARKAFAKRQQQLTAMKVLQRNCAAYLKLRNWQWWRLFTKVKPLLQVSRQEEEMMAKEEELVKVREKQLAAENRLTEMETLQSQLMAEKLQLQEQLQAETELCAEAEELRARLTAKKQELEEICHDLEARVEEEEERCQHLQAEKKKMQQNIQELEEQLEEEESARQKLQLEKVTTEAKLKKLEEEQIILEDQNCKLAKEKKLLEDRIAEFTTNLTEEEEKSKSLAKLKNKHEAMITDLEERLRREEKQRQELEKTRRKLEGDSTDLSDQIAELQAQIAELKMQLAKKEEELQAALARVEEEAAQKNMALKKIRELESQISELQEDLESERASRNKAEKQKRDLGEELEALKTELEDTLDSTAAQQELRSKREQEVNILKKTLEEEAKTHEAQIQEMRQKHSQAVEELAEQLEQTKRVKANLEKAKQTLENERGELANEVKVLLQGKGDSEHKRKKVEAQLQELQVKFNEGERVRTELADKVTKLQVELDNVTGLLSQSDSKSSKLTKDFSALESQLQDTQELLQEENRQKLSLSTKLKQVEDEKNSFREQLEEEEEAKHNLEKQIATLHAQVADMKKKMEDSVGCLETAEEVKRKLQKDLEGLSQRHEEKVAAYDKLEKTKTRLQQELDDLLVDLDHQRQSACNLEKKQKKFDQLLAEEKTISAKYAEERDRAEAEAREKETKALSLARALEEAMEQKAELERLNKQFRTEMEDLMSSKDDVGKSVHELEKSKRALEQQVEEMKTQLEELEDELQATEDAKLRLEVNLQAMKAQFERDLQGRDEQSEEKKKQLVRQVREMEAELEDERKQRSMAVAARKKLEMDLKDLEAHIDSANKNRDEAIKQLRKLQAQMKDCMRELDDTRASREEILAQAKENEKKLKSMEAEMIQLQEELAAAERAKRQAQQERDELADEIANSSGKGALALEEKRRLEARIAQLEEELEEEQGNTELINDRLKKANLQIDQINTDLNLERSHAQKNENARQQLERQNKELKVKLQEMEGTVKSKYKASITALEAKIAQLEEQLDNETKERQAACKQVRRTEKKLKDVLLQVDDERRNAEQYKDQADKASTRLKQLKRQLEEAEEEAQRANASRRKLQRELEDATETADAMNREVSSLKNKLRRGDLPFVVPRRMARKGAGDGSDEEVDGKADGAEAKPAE

Target: Purified human Zn7-MT-3 (metallothionein 3) (human) (UniProt P25713)
Experiment: affinity purification with mass spectrometry; 100 ug purified Zn7MT-3 covalently cross-linked to amine-reactive agarose beads, incubated with 1 mg HK-2 lysate; eluted in high salt buffer, SDS-PAGE, silver stain, excised bands, MALDI-TOF/TOF MS/MS; only the target purified

binding	Substance
binds	Myosin heavy chain-9, non-muscle (from UniProt P35579 1-1960)
binds	Tropomyosin alpha-1 chain (from UniProt P09493-5)
